PubChem BioAssay AID652054 (National Center for Advancing Translational Sciences (NCATS), 2013)
Hit rate of the full screen: of about 360,000 compounds, about 9,100 (2.5%) were called active. Inconclusive means that the source gave no clear call. Such entries were picked first, then a sample of the others. Rule as the data show it: active = max response below about -50%; inconclusive = no clear call, values can overlap the other calls; inactive = above that.

Amino acid sequences for entries named in this document (tags omitted).
UniProt P35462, whole entry, looked up: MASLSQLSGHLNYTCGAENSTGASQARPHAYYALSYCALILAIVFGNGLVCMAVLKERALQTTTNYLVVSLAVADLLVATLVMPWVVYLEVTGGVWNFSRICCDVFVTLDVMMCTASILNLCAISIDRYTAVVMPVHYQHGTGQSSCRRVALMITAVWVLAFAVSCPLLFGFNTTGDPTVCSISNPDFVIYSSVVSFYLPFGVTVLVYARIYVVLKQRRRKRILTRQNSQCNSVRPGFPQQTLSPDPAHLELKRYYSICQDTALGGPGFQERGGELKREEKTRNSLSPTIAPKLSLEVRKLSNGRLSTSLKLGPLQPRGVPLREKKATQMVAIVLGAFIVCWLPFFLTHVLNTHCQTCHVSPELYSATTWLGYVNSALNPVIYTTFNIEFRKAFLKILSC

Target: D(3) dopamine receptor (Homo sapiens) (UniProt P35462)
Experiment: qHTS of D3 Dopamine Receptor Antagonist: qHTS
Conditions: D3R cells, DiscoveRx beta-arrestin luminescence, antagonist mode; active compounds read low
Procedure, shortened: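 Cells expressing the human receptor were seeded at 1500 cells/well, incubated overnight at 37 degrees C in 5% CO2, then exposed to library compounds with dopamine controls for 90 minutes at 37 degrees C before luminescent detection.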
% is scaled to controls: 0 for no effect and ±100 for the full control effect.

SMILES	max response, negative = inhibition
CC(=NCc1ccccc1)C1=C(O)COC1=O	inconclusive: -42.9%
C/C(=N\NC(=O)Cc1cc(=O)[nH][nH]1)c1cccc([N+](=O)[O-])c1	inconclusive: -32%
COCCN(CC(=O)Nc1cccc(C)c1C)C(=O)Cc1sc(C)nc1-c1ccc(F)cc1	inconclusive: -32.5%
CCOC(=O)C1(CCOc2ccccc2)CCN(Cc2ccc(OC)cc2)CC1	active: -71.9%
O=C(NCCCc1ccncc1)C1CCC(=O)N(Cc2cccc(C(F)(F)F)c2)C1 (stereo unspecified)	inconclusive: -40.3%
CCc1nnc(NC(=O)CCC(=O)NCc2ccccc2Cl)s1	inconclusive: -42.5%
CCCCn1nnnc1C(c1cc2ccccc2o1)N1CCN(c2cc(C)nc3ccccc23)CC1 (stereo unspecified)	inconclusive: -33.1%
O=C(NC(=S)Nc1cccc(S(=O)(=O)NC2=NCCC2)c1)c1cc(-c2ccco2)nc2ccccc12	inactive: -17.7%
Cc1ccccc1N1CCN(CCN2C(=O)CC(=C3c4ccccc4-c4ccccc43)C2=O)CC1	active: -64.9%
O=C(Cn1nnc2ccccc21)NCc1ccccc1	inconclusive: -30.8%
CC(C)CCNC(=O)CN1N=C(c2ccc(Cl)cc2)CCC1=O	inconclusive: -30.4%
CC1CC(C)CN(C(=O)c2ccc(S(=O)(=O)N3CC(C)CC(C)C3)cc2)C1 (stereo unspecified)	inactive: 11.2%
COc1ccc(Cl)cc1NC(=O)NCCN1CCCCC1	inconclusive: -37.5%
COc1cc2[nH]c(C(=O)Nc3ccc4c(c3)OCCO4)cc2c(OC)c1OC	inconclusive: -30.4%
CCC(=O)NC(c1cccs1)c1cc(Cl)c2cccnc2c1O (stereo unspecified)	inconclusive: -49.5%
Cn1c(=O)c(C(=O)NCCO)c(O)c2ccccc21	inconclusive: -42.1%
COCCn1c(=S)[nH]c2cc(C(=O)N3CCN(c4ccccc4OC)CC3)ccc2c1=O	inconclusive: -45.2%
BrC(/C=C\c1ccccc1)=N/Nc1nc(N2CCOCC2)nc(N2CCOCC2)n1	inconclusive: -36.3%
CN(CC(=O)Nc1cccc(F)c1)C(=O)CNS(=O)(=O)c1ccc(N(C)C)c([N+](=O)[O-])c1	inconclusive: -31.8%
Cc1ccc(CN2C(=O)CSCC2(C)C(=O)NCc2ccccc2)cc1 (stereo unspecified)	inconclusive: -41%
CCSc1nnc(NC(=O)NC(C)(C(F)(F)F)C(F)(F)F)s1	inactive: 5.8%
Cc1cc(NCc2ccccc2)n2ncc(-c3ccccc3)c2n1	inactive: 49.7%

SMILES	max response, negative = inhibition
Cc1ccccc1N1C(S)=C(C#N)C(=O)NC1c1cccs1 (stereo unspecified)	active: -72.7%
Cc1ccc(CN(CC(O)COc2cccc3[nH]cc(C)c23)C(C)(C)C)cc1 (stereo unspecified)	inconclusive: -36.2%
COc1ccc(CCN(C)C2CCCN(C(=O)Cn3cnnn3)C2)cc1OC (stereo unspecified)	inconclusive: -47.3%
O=C(c1nc2nc(-c3ccc(Cl)cc3)cc(C(F)(F)F)n2n1)N1CCOCC1	inactive: 23.1%
O=C(O)C(c1ccccc1)N1C(=O)/C(=C\c2ccc(O)c(O)c2)SC1=S (stereo unspecified)	inconclusive: -45.3%
O=C(CSc1nnc(-c2ccc(C(F)(F)F)cn2)s1)c1ccc(Cl)cc1	inconclusive: -32.1%
CC(C)c1ccc(O)c(NC(=O)c2ncn[nH]2)c1	inactive: 18.2%
Cc1cccn2c(=O)c3cc(S(=O)(=O)c4ccc(F)cc4)c(=N)n(Cc4ccco4)c3nc12	inconclusive: -42.8%
C[C@@H]1CN([C@@H](C)CO)C(=O)c2cccc(NS(=O)(=O)c3ccc(F)cc3)c2O[C@H]1CN(C)C(=O)NC1CCCCC1	inconclusive: -48.1%
CCCCC(=O)NCCc1ccc(OC)cc1	inconclusive: -49.9%
CCOc1cc(/C=N\NC(=O)c2ccc(C)nc2)cc([N+](=O)[O-])c1O	inconclusive: -43.5%
O=C(Nc1ncc2c(n1)-c1ccccc1CC2)c1cccc(Cl)c1	inconclusive: -31.1%
CC1=Nc2ccccc2/C1=C/c1sc(=S)n(-c2cccc(C(=O)O)c2)c1O	inconclusive: -39.6%
CN(CCC(=O)Nc1ccc(Cl)cc1)Cc1ccccc1	active: -97%
C/C(=N\Nc1ccc(Cl)c(C(=O)O)c1)c1ccc[nH]1	inactive: 38.3%
CN(CCc1ccccc1)C(=O)c1cccc(NC(=O)Cc2cccc(NC(=O)C3CCCN(S(=O)(=O)c4cccc([N+](=O)[O-])c4)C3)c2)c1 (stereo unspecified)	inconclusive: -34.8%
Cn1cccc1C(=O)NNC(=O)COc1ccccc1F	inactive: 7.94%
Cc1nn(C)cc1C(=O)/C=C/c1ccc([N+](=O)[O-])cc1	inconclusive: -33.5%
COC(C[C@H]1O[C@H]1C(=O)[C@H](C)OCc1ccccc1)OC	inconclusive: -44.4%
Cc1ccc(-c2[nH]c(-c3ccc(C(=O)O)cc3)nc2-c2ccccc2)cc1	inconclusive: -41.3%
O=S(=O)(c1cnc(Cl)c(Cl)c1)N1CCCc2ccccc21	inactive: -22%
CN(C)CCCNC(=O)c1ccc(-c2nc(-c3ccc(Cl)cc3)cs2)cc1	inactive: -7.99%

Reprinted at random: three compounds from above.
SMILES	max response, negative = inhibition
Cc1ccc(-c2[nH]c(-c3ccc(C(=O)O)cc3)nc2-c2ccccc2)cc1	inconclusive: -41.3%
COc1ccc(CCN(C)C2CCCN(C(=O)Cn3cnnn3)C2)cc1OC (stereo unspecified)	inconclusive: -47.3%
O=C(CSc1nnc(-c2ccc(C(F)(F)F)cn2)s1)c1ccc(Cl)cc1	inconclusive: -32.1%

The listing continues.

SMILES	max response, negative = inhibition
O=C(COC(=O)CCS(=O)(=O)c1ccc(F)cc1)NC1CCCCC1	inconclusive: -32.5%
Cc1ccc2sc(NC(=O)CN3C(=O)CCC3=O)nc2c1C	inconclusive: -30.5%
O=C(NS(=O)(=O)N1CCCC1)C1=C(N2CCCC2)COC1=O	inactive: 6.81%
O=C(CSc1nnc(-c2cccc(Br)c2)o1)N1CCNC1=O	inactive: 0.38%
COc1ccc(C2SCCN2C(=S)Nc2cccc(Cl)c2)cc1 (stereo unspecified)	inconclusive: -35.6%
Fc1ccc(-c2ccc(CNCc3ccccn3)o2)cc1	inconclusive: -49.6%
COc1ccc(C(O)c2nc(-c3cccc(CO)c3)cs2)cc1 (stereo unspecified)	inconclusive: -35.1%
COc1cccc(NC(=O)N(C)C[C@@H]2OCc3cnnn3CCCC(=O)N([C@@H](C)CO)C[C@H]2C)c1	inconclusive: -35.3%
Oc1c(C=NCc2ccccc2)sc2ccccc12	inconclusive: -31.3%
OC(COc1ccc2cc(Br)ccc2c1)CN1CCCC1 (stereo unspecified)	inactive: -27%
Cc1cc(C)cc(NC(=O)CSc2ccccc2)c1	inconclusive: -45.9%
COc1ccc2c(-c3ccc(OCCN4CCOCC4)cc3)c(-c3ccccc3OC)sc2c1	inactive: -7.42%
O=C(NC(=S)Nc1ccc(S(=O)(=O)N2CCCCC2)cc1)c1ccccc1	inconclusive: -35%
Cc1cccc2c1NC(=O)C2(c1ccc(O)cc1)c1ccc(O)cc1	inconclusive: -37.3%
CNC(=O)c1[nH]cnc1C(=O)NCC(=O)OC(C)(C)C	inconclusive: -32.4%
OC(CNC1Cc2ccccc2C1)c1ccccc1 (stereo unspecified)	inconclusive: -39%
CCNC(=S)NNC(=O)CCn1c2ccccc2c2ccccc21	inactive: -4.14%
CCOC(=O)C1CCCN(Cc2cc(Br)ccc2OC)C1 (stereo unspecified)	active: -60.4%
O=C(Nc1cc(S(=O)(=O)Nc2ccc(Cl)cc2)ccc1O)c1ccc(F)cc1F	active: -59.6%
CCOC(=O)c1c(N)sc(C(O)(C(F)(F)F)C(F)(F)F)c1-c1ccc(Cl)cc1	inactive: 11.9%
OC(COc1ccc(CNCCc2ccc(C(F)(F)F)cc2)cc1)CN1CCCCC1 (stereo unspecified)	inconclusive: -47.5%
CN(C)S(=O)(=O)c1cccc(-c2nn(-c3ccccc3)cc2/C=C(/C#N)C(=O)NCc2ccco2)c1	inconclusive: -31.7%

SMILES	max response, negative = inhibition
CCN(CC)C(=O)c1sc(NC(=O)c2c(OC)cccc2OC)c(C#N)c1C	inactive: -0.429%
NC(=O)c1cc2cc(Cc3ccccc3Cl)ccc2oc1=O	inconclusive: -31%
Cc1cc(C)cc(NC(=O)Cn2nnc(C(=O)NCc3ccc(F)cc3)c2N)c1	inactive: -12.1%
CC1OC(COCc2ccccc2)Cc2[nH][nH]c(=O)c21 (stereo unspecified)	inactive: 8.19%
COc1ccc(Br)cc1CN1CCC(N2CCCC2)CC1	inactive: -20.5%
COc1ccc(CCn2c(NN=C(C)C)nc3c2c(=O)[nH]c(=O)n3C)cc1	inconclusive: -40%
O=C(CSc1ccccc1)NCC1(N2CCCCC2)CCCCC1	inconclusive: -33.6%
COC(=O)c1ccccc1NC(=O)NC1CCN(Cc2ccccc2)CC1	active: -92.7%
CC[C@@H](C)[C@@H]1CN([C@@H](C)CN2CCC[C@H]2CN2C(N)=NC[C@H]2C(C)C)C(=N)N1CCc1ccc(Cl)c(Cl)c1	inconclusive: -30.4%
CCOC(=O)C1(CCOc2ccccc2)CCN(Cc2cc(OC)c(O)c(OC)c2)CC1	inconclusive: -47.3%
Oc1ccc(N2CCN(C(c3cccnc3)c3nnnn3Cc3ccccc3)CC2)cc1 (stereo unspecified)	inactive: 56.2%
CCOC(=O)C1=CC[C@@H](c2ccccc2)N(S(=O)(=O)c2ccc(C)cc2)[C@@H]1C#N	inconclusive: -44.2%
COc1cc(-c2cc(C(=O)NCCc3ccc(S(N)(=O)=O)cc3)c3ccccc3n2)cc(OC)c1OC	inactive: -7.82%
CN(C(=O)Nc1ccc(S(=O)(=O)N(C)C)cc1)C1CCCCC1	inconclusive: -44.5%
O=C1OC(NC(=O)c2ccccc2)C(n2cc(CO)nn2)=C1Cl (stereo unspecified)	inconclusive: -43.4%
COc1cc2c(cc1NC(=O)CSc1nc3ccccc3[nH]1)oc1ccccc12	active: -74.7%
O=C(CC(Nc1ccc(Cl)cc1)C(=O)O)c1ccccc1 (stereo unspecified)	inconclusive: -31.8%
CC1(C)Oc2ccc3ccc(=O)oc3c2[C@@H](O)[C@@H]1O	inactive: 0%
Cc1ccc(CNC(=O)c2ccc(Cn3nc(C)c(Cl)c3C)o2)cc1	active: -53.2%
O=C(NC1CCCC1)c1cnn2c(C(F)(F)F)cc(-c3ccc4c(c3)OCO4)nc12	inconclusive: -46.8%
